Results are given in words; binding and its absence hold for the method and conditions named. For some of these results: Binding seen in cells or lysates may run through a third protein. Some results given as binding are weak or reduced against the parent protein; the word gives no strength. Where a sequence is shown, tags or fusion partners need not be part of it. Values belong to the binder of their own block, whether it stands above or below them.
Key:
[1] = target: T1, YFPn-RBE (Arabidopsis thaliana) (UniProt Q9LHS9); test: split reporter; BiFC with YFPn and YFPc fusions (pEarleyGate202-YN, pEarleyGate201-YC) co-infiltrated by Agrobacterium into N. benthamiana leaves with P19; confocal imaging 48h after infiltration
T1 sequence: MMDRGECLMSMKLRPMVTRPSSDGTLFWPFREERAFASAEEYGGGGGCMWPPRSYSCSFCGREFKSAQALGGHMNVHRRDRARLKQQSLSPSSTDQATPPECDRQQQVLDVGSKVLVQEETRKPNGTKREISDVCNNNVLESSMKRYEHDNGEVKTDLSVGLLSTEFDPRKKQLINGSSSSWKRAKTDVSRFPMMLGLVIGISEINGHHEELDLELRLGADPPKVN

[2] = target: T2, RABBIT EARS (RBE), yeast two-hybrid fusion (Arabidopsis thaliana) (UniProt Q9LHS9); test: two-hybrid; Gal4 system, pGADT7 (prey) and pGBKT7-GW (bait) co-transformed into Y2H Gold yeast; DDO (SD-Leu-Trp) to select, QDO to analyze interactions; repeated three times
T2 sequence: T1 sequence

[3] = target: T3, YFP-RBE (Arabidopsis thaliana) (UniProt Q9LHS9); test: co-IP; YFP-RBE and Myc-TPL co-infiltrated with P19 into N. benthamiana leaves; extract incubated with GFP-trap agarose beads overnight at 4°C; blots with anti-Myc and anti-GFP
T3 sequence: T1 sequence

B1: TFL2/LHP1, BiFC construct (protein, UniProt Q946J8 1-445)
chain: MKGASGAVKKKPQVLNEAGEAETAVETVGESRKISGDGGFGSDDGGGGGGGGSGESILREIGDDRPTEDGDEEEEEDEDEDDGGDEEDEEGEGEGGQEERPKLDEGFYEIEAIRRKRVRKGKVQYLIKWRGWPETANTWEPLENLQSIADVIDAFEGSLKPGKPGRKRKRKYAGPHSQMKKKQRLTSTSHDATEKSDSSTSLNNSSLPDIPDPLDLSGSSLLNRDVEAKNAYVSNQVEANSGSVGMARQVRLIDNEKEYDPTLNELRGPVNNSNGAGCSQGGGIGSEGDNVRPNGLLKVYPKELDKNSRFIGAKRRKSGSVKRFKQDGSTSNNHTAPTDQNLTPDLTTLDSFGRIARMGNEYPGVMENCNLSQKTKIEELDITKILKPMSFTASVSDNVQEVLVTFLALRSDGKEALVDNRFLKAHNPHLLIEFYEQHLKYNRTP
binding [1]: binds

B4: Lysine-Specific Demethylase 1 (LSD1)-like histone demethylase LDL1, BiFC construct (enzyme, UniProt Q8VXV7 1-844)
chain: MSTETKETRPETKPEDLGTHTTVDVPGEEPLGELIADDVNEVVSDASATETDFSLSPSQSEQNIEEDGQNSLDDQSPLTELQPLPLPPPLPVEARISESLGEEESSDLVTEQQSQNPNAAEPGPRARKRRRRKRFFTEINANPAFSRNRRTSVGKEVDSEALIAMSVGFPVYSLTEEEIEANVVSIIGGKDQANYIVVRNHIIALWRSNVSNWLTRDHALESIRAEHKTLVDTAYNFLLEHGYINFGLAPVIKEAKLRSFDGVEPPNVVVVGAGLAGLVAARQLLSMGFRVLVLEGRDRPGGRVKTRKMKGGDGVEAMADVGGSVLTGINGNPLGVLARQLGLPLHKVRDICPLYLPNGELADASVDSKIEASFNKLLDRVCKLRQSMIEENKSVDVPLGEALETFRLVYGVAEDQQERMLLDWHLANLEYANATLLGNLSMAYWDQDDPYEMGGDHCFIPGGNEIFVHALAENLPIFYGSTVESIRYGSNGVLVYTGNKEFHCDMALCTVPLGVLKKGSIEFYPELPHKKKEAIQRLGFGLLNKVAMLFPCNFWGEEIDTFGRLTEDPSTRGEFFLFYSYSSVSGGPLLVALVAGDAAERFETLSPTDSVKRVLQILRGIYHPKGIVVPDPVQALCSRWGQDKFSYGSYSYVAVGSSGDDYDILAESVGDGRVFFAGEATNRQYPATMHGAFLSGMREAANILRVARRRASSSALNPNQICIDKEEEVDEEEDRCLDQLFETPDLTFGNFSVLFTPNSDEPESMSLLRVRIQMEKPESGLWLYGLVTRKQAIELGEMDGDELRNEYLREKLGLVPVERKSLSQEGESMISSLKAARLNRQIFD
binding [1]: binds

B5: TOPLESS (TPL), yeast two-hybrid fusion (protein, UniProt Q94AI7 1-1131)
chain: MSSLSRELVFLILQFLDEEKFKETVHKLEQESGFFFNMKYFEDEVHNGNWDEVEKYLSGFTKVDDNRYSMKIFFEIRKQKYLEALDKHDRPKAVDILVKDLKVFSTFNEELFKEITQLLTLENFRENEQLSKYGDTKSARAIMLVELKKLIEANPLFRDKLQFPTLRNSRLRTLINQSLNWQHQLCKNPRPNPDIKTLFVDHSCGPPNGARAPSPVNNPLLGGIPKAGGFPPLGAHGPFQPTASPVPTPLAGWMSSPSSVPHPAVSAGAIALGGPSIPAALKHPRTPPTNASLDYPSADSEHVSKRTRPMGISDEVNLGVNMLPMSFSGQAHGHSPAFKAPDDLPKTVARTLSQGSSPMSMDFHPIKQTLLLVGTNVGDIGLWEVGSRERLVQKTFKVWDLSKCSMPLQAALVKEPVVSVNRVIWSPDGSLFGVAYSRHIVQLYSYHGGEDMRQHLEIDAHVGGVNDISFSTPNKQLCVITCGDDKTIKVWDAATGVKRHTFEGHEAPVYSVCPHYKENIQFIFSTALDGKIKAWLYDNMGSRVDYDAPGRWCTTMAYSADGTRLFSCGTSKDGESFIVEWNESEGAVKRTYQGFHKRSLGVVQFDTTKNRYLAAGDDFSIKFWDMDAVQLLTAIDGDGGLQASPRIRFNKEGSLLAVSGNENVIKIMANSDGLRLLHTFENISSESSKPAINSIAAAAAAAATSAGHADRSANVVSIQGMNGDSRNMVDVKPVITEESNDKSKIWKLTEVSEPSQCRSLRLPENLRVAKISRLIFTNSGNAILALASNAIHLLWKWQRNERNATGKATASLPPQQWQPASGILMTNDVAETNPEEAVPCFALSKNDSYVMSASGGKISLFNMMTFKTMATFMPPPPAATFLAFHPQDNNIIAIGMDDSTIQIYNVRVDEVKSKLKGHSKRITGLAFSNVLNVLVSSGADAQLCVWNTDGWEKQRSKVLPLPQGRPNSAPSDTRVQFHQDQAHFLVVHETQLAIYETTKLECMKQWAVRESLAPITHATFSCDSQLVYASFMDATVCVFSSANLRLRCRVNPSAYLPASLSNSNVHPLVIAAHPQEPNMFAVGLSDGGVHIFEPLESEGKWGVAPPAENGSASGAPTAPSVGASASDQPQR
binding [2]: binds

Other lines, results leading:

binding [2]: binds
B2: TFL2/LHP1, yeast two-hybrid fusion (protein, UniProt Q946J8 1-445)
chain: B1 chain

binding [1]: binds
B3: YFPc-HDA19 (enzyme, UniProt O22446 1-501)
chain: MDTGGNSLASGPDGVKRKVCYFYDPEVGNYYYGQGHPMKPHRIRMTHALLAHYGLLQHMQVLKPFPARDRDLCRFHADDYVSFLRSITPETQQDQIRQLKRFNVGEDCPVFDGLYSFCQTYAGGSVGGSVKLNHGLCDIAINWAGGLHHAKKCEASGFCYVNDIVLAILELLKQHERVLYVDIDIHHGDGVEEAFYATDRVMTVSFHKFGDYFPGTGHIQDIGYGSGKYYSLNVPLDDGIDDESYHLLFKPIMGKVMEIFRPGAVVLQCGADSLSGDRLGCFNLSIKGHAECVKFMRSFNVPLLLLGGGGYTIRNVARCWCYETGVALGVEVEDKMPEHEYYEYFGPDYTLHVAPSNMENKNSRQMLEEIRNDLLHNLSKLQHAPSVPFQERPPDTETPEVDEDQEDGDKRWDPDSDMDVDDDRKPIPSRVKREAVEPDTKDKDGLKGIMERGKGCEVEVDESGSTKVTGVNPVGVEEASVKMEEEGTNKGGAEQAFPPKT

binding [1]: binds
B6: YFPc-TPL (protein, UniProt Q94AI7 1-1131)
chain: B5 chain

binding [3]: binds
B7: Myc-TPL (protein, UniProt Q94AI7 1-1131)
chain: B5 chain
